Source: PubChem BioAssay AID1259308 (NCATS, 2017)
Shown is an unselected part of about 59,000 reagents tested. About 1,510 of them (2.6%) count as active. 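Calls use total luciferase alone and ignore viability, so some active siRNAs may act by altering cell number.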 Reagents against one gene are numbered here. Further read-outs or replicates are left out here. Reagent sequences are not shown.

Test: 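Candidate targets for better recombinant protein yield in mammalian cells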 (primary screen)
System: human HEK293 embryonic kidney cells stably expressing firefly luciferase (HEK-CMV-Luc2-Hygro)
Knock-down reagent: single siRNA against human genes, 0.8 pmol siRNA per well
Time to read-out: 72 h
Detection: 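Reporter luminescence and viable-cell signal on separate replicate plates, given as percent of non-targeting control and median/MAD z-scores, plus per-cell luciferase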
Scale: total luciferase, z-score and total luciferase, % of control: higher = more reporter protein produced; luciferase per cell, z-score: higher = more reporter output per viable cell
Rule for the call: 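An siRNA counts as active if its total luciferase robust z-score exceeds 3; genes with two or more such siRNAs out of three were retested with fresh siRNAs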
Meaning of the calls: active = raised luciferase; inactive = no rise

gene	reagent	total luciferase, z-score	total luciferase, % of control	luciferase per cell, z-score	activity call
NDUFA12 (NADH:ubiquinone oxidoreductase subunit A12)	1	-1.51	51.8	-0.976	inactive
NDUFA12 (NADH:ubiquinone oxidoreductase subunit A12)	2	-0.028	81.3	0.214	inactive
NDUFA12 (NADH:ubiquinone oxidoreductase subunit A12)	3	-0.463	72.7	0.013	inactive
SYT14P1 (synaptotagmin 14 pseudogene 1)	1	5.55	192	3.61	active
SYT14P1 (synaptotagmin 14 pseudogene 1)	2	-0.221	77.5	-0.607	inactive
SYT14P1 (synaptotagmin 14 pseudogene 1)	3	-0.983	62.3	-1.03	inactive
CLDND1 (claudin domain containing 1)	1	-2.31	36	-0.717	inactive
CLDND1 (claudin domain containing 1)	2	1.15	105	2.87	inactive
CLDND1 (claudin domain containing 1)	3	-1.33	55.5	-1.63	inactive
ZNF75D (zinc finger protein 75D)	1	-0.738	67.2	0.098	inactive
ZNF75D (zinc finger protein 75D)	2	3.15	144	1.69	active
ZNF75D (zinc finger protein 75D)	3	-1.45	53.1	-0.615	inactive
LOC645188	1	-0.831	65.4	1.78	inactive
LOC645188	2	-1.26	56.8	-1.18	inactive
LOC645188	3	-1.36	54.9	-0.43	inactive
TNRC18P1 (trinucleotide repeat containing 18 pseudogene 1)	1	0.868	99.2	1.61	inactive
TNRC18P1 (trinucleotide repeat containing 18 pseudogene 1)	2	1.09	104	1.4	inactive
TNRC18P1 (trinucleotide repeat containing 18 pseudogene 1)	3	-1.57	50.7	-0.595	inactive
TIMM9 (translocase of inner mitochondrial membrane 9)	1	0.636	94.5	0.184	inactive
TIMM9 (translocase of inner mitochondrial membrane 9)	2	-0.304	75.8	-0.4	inactive
TIMM9 (translocase of inner mitochondrial membrane 9)	3	-0.485	72.2	0.587	inactive
DOK1 (docking protein 1)	1	1.03	102	0.78	inactive
DOK1 (docking protein 1)	2	0.408	90	0.0263	inactive
DOK1 (docking protein 1)	3	1.11	104	1.12	inactive

2 entries already listed, sorted by “total luciferase, z-score”, ascending.
gene	reagent	total luciferase, z-score	total luciferase, % of control	luciferase per cell, z-score	activity call
CLDND1 (claudin domain containing 1)	1	-2.31	36	-0.717	inactive
CLDND1 (claudin domain containing 1)	2	1.15	105	2.87	inactive
